Data as given in US20260216166A1, “COMPOUND FOR TREATMENT OF ERECTILE DYSFUNCTION” (Initiator Pharma A/S, priority 2023, published 2026).
Entries after “also recorded” stand apart in the source; their conditions may differ. At least one structure is not confirmed: it was looked up by name or label, or the drawing left a doubt.

Columns and labels:
[1] = tested on: rat corpus cavernosum strips; experiment: Isometric tension of isolated rat corpus cavernosum strips; conditions: baseline tension; clozapine 10^-6 M, SCH23390, L-NOARG 10^-4 M, sildenafil 10^-7 M
Experimental: For functional studies in corpus cavernosum strips, the penis was removed by cutting the crura corpora cavernosa at the point of adhesion to the lower pubic bone, and the corpora cavernosa were then dissected free. The penis was submerged immediately in ice-cold (4° C.) PSS. The tunica albuginea was carefully opened from its proximal extremity of the corpus cavernosum towards the penile shaft and the erectile tissue within the corpus cavernosum was microsurgically dissected free. Change in isometric tension of corpus cavernosum strips (0.5×0.5×3 mm) were investigated in a tissue organ bath system (750TOBS, Danish Myotechnology, Aarhus, Denmark). Silk ligatures were applied at both ends of the strip preparations, which were then suspended between two L-formed metal prongs in thermostatically controlled organ baths (5 ml, 37° C.) containing PSS aerated with a mixture of 5% CO2 in air (pH 7.4). The bath fluid was routinely changed every 20 min and replaced with fresh PSS, also kept at 37° C. During an equilibration period of 60 min, tension was adjusted until a mean stable tension of 1.2 mN was obtained, as described earlier.
To test the contractility of the preparations, they were exposed to a potassium physiological saline solution (KPSS) of 125 mM and phenylephrine (10^-6 M), after each contraction acetylcholine was administrated to check endothelium-dependent relaxations. […]

[2] = tested on: anaesthetized rats; experiment: Intracavernous pressure / spontaneous erections in anaesthetized rats; type: in vivo, rat; conditions: sildenafil 1 mg/kg 10 min or clozapine 1 mg/kg 30 min prior to IP2015 i.v.
Experimental: For in vivo erectile physiology studies, rats were anaesthetized with pentobarbital sodium (Sygehus Apoteket, Aarhus, Denmark; 50 mg/kg) given intraperitoneally. During the experiment, the rats breathed spontaneously; the body temperature was monitored continuously and was maintained at 37° C. With a midline incision in the perineum, the base of the penis, enclosed by striated muscles, was exposed. The ischiocavernous muscle covering the crus corpus cavernosum was divided on one side, and entrance to the underlying tunica albuginea was given. A 25-gauge needle attached to a heparinized (100 IE ml-1) polyethylene catheter was inserted into the crus corpus cavernosum to measure intracavernous pressure (ICP). A heparinized polyethylene catheter (PE 50) was introduced into the carotid artery to measure mean arterial pressure (MAP). Continuous direct measurements of MAP and ICP were performed with transducers (Disposable BP Transducer, ADInstruments, UK), and registered and analysed on a computerized data acquisition system (PowerLab, ADInstruments).
A stabilizing period of 20-30 min was allowed before registration of basal ICP and MAP. […]

| Structure (SMILES) | effect on IP2015 relaxation of corpus cavernosum strips [1] | effect on IP2015-induced erectile responses [2] |
| --- | --- | --- |
| CN1CCc2cc(Cl)c(O)cc2[C@@H](c2ccccc2)C1 [SCH23390] | converted to small contractions; also recorded: blunted; also recorded: inhibited | – |
| CN1CCN(C2=Nc3cc(Cl)ccc3Nc3ccccc32)CC1 [clozapine, reference compound] | unaltered | inhibited IP2015-induced erectile responses |
